According to article PMC6338754:
These are yes or no findings as the source states them, for the method shown. In cells and extracts the contact can be indirect. Binding can be weak; no strength is given.

Protein sequences, listed by entry. Tags and fused reporters are not part of them. Lines headed by an entry give the natural chain unless they say otherwise; changes in a name come on top. Chains listed by the source or under a name are the forms on record and can include a tag or linker.
UniProt Q8IWA4: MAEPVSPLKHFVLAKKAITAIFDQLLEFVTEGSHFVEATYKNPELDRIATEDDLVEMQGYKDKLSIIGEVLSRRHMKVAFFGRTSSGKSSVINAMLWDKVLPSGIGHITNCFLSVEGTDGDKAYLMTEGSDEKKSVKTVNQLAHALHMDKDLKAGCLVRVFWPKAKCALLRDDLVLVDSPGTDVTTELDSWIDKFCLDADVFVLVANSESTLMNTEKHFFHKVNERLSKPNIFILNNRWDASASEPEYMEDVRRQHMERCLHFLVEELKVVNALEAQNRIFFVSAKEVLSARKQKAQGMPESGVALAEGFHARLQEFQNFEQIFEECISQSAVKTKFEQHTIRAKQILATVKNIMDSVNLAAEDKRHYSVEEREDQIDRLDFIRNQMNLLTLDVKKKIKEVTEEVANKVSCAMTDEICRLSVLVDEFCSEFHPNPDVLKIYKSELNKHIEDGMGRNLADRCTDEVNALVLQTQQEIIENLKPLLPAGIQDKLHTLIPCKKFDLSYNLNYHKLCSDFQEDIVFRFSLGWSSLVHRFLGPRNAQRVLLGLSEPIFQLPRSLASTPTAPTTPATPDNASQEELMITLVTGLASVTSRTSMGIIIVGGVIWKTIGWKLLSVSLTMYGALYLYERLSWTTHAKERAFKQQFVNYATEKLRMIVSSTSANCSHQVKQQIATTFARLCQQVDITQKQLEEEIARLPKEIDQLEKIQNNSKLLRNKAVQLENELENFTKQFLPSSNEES
recombinant βIIPKC (GST-βIIPKC) (P05771-2, form named): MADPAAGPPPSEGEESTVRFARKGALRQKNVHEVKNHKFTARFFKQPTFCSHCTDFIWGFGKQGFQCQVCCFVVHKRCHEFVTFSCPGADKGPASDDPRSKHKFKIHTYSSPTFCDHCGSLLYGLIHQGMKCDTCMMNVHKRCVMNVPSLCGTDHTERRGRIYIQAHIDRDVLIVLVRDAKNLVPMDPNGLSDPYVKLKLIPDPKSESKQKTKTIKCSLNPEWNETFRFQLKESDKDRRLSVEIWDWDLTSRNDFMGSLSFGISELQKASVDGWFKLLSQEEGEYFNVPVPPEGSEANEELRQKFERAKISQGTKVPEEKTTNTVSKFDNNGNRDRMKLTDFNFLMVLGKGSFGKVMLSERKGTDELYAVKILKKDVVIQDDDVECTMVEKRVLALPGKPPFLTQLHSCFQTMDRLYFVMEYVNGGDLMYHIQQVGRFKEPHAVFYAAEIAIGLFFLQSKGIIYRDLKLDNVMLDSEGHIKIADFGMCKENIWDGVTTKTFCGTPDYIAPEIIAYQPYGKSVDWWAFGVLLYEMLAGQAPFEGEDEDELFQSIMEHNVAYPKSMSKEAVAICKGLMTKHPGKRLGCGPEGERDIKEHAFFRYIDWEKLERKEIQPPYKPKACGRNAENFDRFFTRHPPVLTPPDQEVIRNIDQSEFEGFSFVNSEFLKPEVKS

Target: recombinant Mfn1 (GST-Mfn1) (UniProt Q8IWA4)
Assay: co-IP; recombinant GST-Mfn1 (25 ng) incubated with recombinant GST-βIIPKC (25 ng) in the presence and absence of PS/DAG/Ca2+ for 30 min at 37 °C; immunoprecipitation with anti-Mfn1 and βIIPKC, western blot; both purified

“recombinant βIIPKC (GST-βIIPKC) (from UniProt P05771-2 1-673) (enzyme)” was tested, and the binding was “binds”.
